# About 1,400 (0.41%) of roughly 340,000 compounds were called active. All entries are inconclusive by the source's own rule. Clear calls are listed elsewhere. The call rests on the fitted dose curve; cell line not stated here.
# Assay: qHTS for Antagonists of gsp, the Etiologic Mutation Responsible for Fibrous Dysplasia/McCune-Albright Syndrome: qHTS; further: nearly all actives have a fitted effect of over 65% in size
# Settings: gsp-mutant cells, cAMP HTRF, 30 min
# Potency means the concentration at half of the fitted maximal effect.
row,Compound,Potency
1,O=[N+]([O-])c1cc([N+](=O)[O-])c(Nc2cccnc2)c([N+](=O)[O-])c1,inconclusive: 25.1 µM

# — PubChem BioAssay AID624288 (National Center for Advancing Translational Sciences (NCATS), 2012)
